Test results from patent US20210221879A1.
Results are given in words; binding and its absence hold for the method and conditions named. A result given as binding can be weak or reduced; the word gives no strength.

Target: Keyhole limpet hemocyanin containing AGEs derived from glyceraldehyde (Glycer-AGEs-KLH) (keyhole limpet)
Assay: ELISA of hybridoma culture supernatant on immobilised antigen

- binding: binds
B1: novel monoclonal antibody PB-1 (antibody, V domains shown)
VH: EVRLQQSGPELVKPGTSVKISCKASGYSFTGYYMHWVKQSPVKSLEWIGRIIPYNGATSYNQNFKDKASLTVDKSSRTAYMDLHSLTSEDSAVYYCARSRYYGRAPYYFDYWGQGTTLTVSS
VL: DVVVTQTPLSLPVSLGDQASISCRSSQSIVHSNGNTYLEWYLQKPGQSPKLLIYKVSNRFSGVPDRISGSGSGTDFTLKISRVEAGDLGVYSCFQGSHVPFTFGSGTKLEIK
